Source: PMC10350061
These are yes or no findings as the source states them, for the method shown. Binding seen in cells or lysates may run through a third protein. These calls come from enrichment with a bait or labelling near it, and not all partners need be listed.

B1: Homer protein homologue (protein, UniProt Q99JP6 1-356)
chain: MSTAREQPIFSTRAHVFQIDPTTKRNWIPAGKHALTVSYFYDATRNVYRIISIGGAKAIINSTVTPNMTFTKTSQKFGQWADSRANTVYGLGFASEQQLTQFAEKFQEVKEAARLAREKSQDGGEFTSTGLALASHQVPPSPLVSTNGPGEEKLFRSQSADTPGPTERERLKKMLSEGSVGEVQWEAEFFALQDSNQRLAGALREANAAATQWRQQLEVQRAEAELLRQRVAELEAQVAVEPVRAGEKEATSQSVEQLEARVQTKDQTLKNQSTGTREAPDTAEREETQQQVQDLETRNAELEQQLRSMECNLEEARAERERARAEVGRAAQLLDVRLFELSELREGLARLAEAAP
B2: Septin 7 (protein, UniProt O55131 1-436)
chain: MSVSARSAAAEERSVNCGTMAQPKNLEGYVGFANLPNQVYRKSVKRGFEFTLMVVGESGLGKSTLINSLFLTDLYSPEYPGPSHRIKKTVQVEQSKVLIKEGGVQLLLTIVDTPGFGDAVDNSNCWQPVIDYIDSKFEDYLNAESRVNRRQMPDNRVQCCLYFIAPSGHGLKPLDIEFMKRLHEKVNIIPLIAKADTLTPEECQQFKKQIMKEIQEHKIKIYEFPETDDEEENKLVKKIKDRLPLAVVGSNTIIEVNGKRVRGRQYPWGVAEVENGEHCDFTILRNMLIRTHMQDLKDVTNNVHYENYRSRKLAAVTYNGVDNNKNKGQLTKSPLAQMEEERREHVAKMKKMEMEMEQVFEMKVKEKVQKLKDSEAELQRRHEQMKKNLEAQHKELEEKRRQFEEEKANWEAQQRILEQQNSSRTLEKNKKKGKIF
B3: E3 ubiquitin ligase Traf7 (enzyme, UniProt Q922B6 1-594)
chain: MPPINTPRRSDSAISVRSLHSESSMSLRSTFSLPEEEEEPEPLVFAEQPSVKLCCQLCCSVFKDPVITTCGHTFCRRCALKSEKCPVDNAKLTVVVNNIAVAEQIGELFIHCRHGCHAAGTGKPGVFEVDPRGCPFTIKLSARKDHESSCDYRPVRCPNNPSCPPLLKMNLEAHLKECEHIKCPHSKYGCTFIGNQDTYETHLETCRFEGLKEFLQQTDDRFHEMHVALAQKDQEIAFLRSMLGKLSEKIDQLEKSLELKFDVLDENQSKLSEDLMEFRRDASMLNDELSHINARLNMGILGSYDPQQIFKCKGTFVGHQGPVWCLCVYSMGDLLFSGSSDKTIKVWDTCTTYKCQKTLEGHDGIVLALCIQGCKLYSGSADCTIIVWDIQNLQKVNTIRAHDNPVCTLVSSHNMLFSGSLKAIKVWDIVGTELKLKKELTGLNHWVRALVAAQSYLYSGSYQTIKIWDIRTLDCIHVLQTSGGSVYSIAVTNHHIVCGTYENLIHVWDIESKEQVRTLTGHVGTVYALAVISTPDQTKVFSASYDRSLRVWSMDNMICTQTLLRHQGSVTALAVSRGRLFSGAVDSTVKVWTC
B4: Septin 2 (protein, UniProt P42208 1-361)
chain: MSKQQPTQFINPETPGYVGFANLPNQVHRKSVKKGFEFTLMVVGESGLGKSTLINSLFLTDLYPERIIPGAAEKIERTVQIEASTVEIEERGVKLRLTVVDTPGYGDAINCRDCFKTIISYIDEQFERYLHDESGLNRRHIIDNRVHCCFYFISPFGHGLKPLDVAFMKAIHNKVNIVPVIAKADTLTLKERERLKKRILDEIEEHSIKIYHLPDAESDEDEDFKEQTRLLKASIPFSVVGSNQLIEAKGKKVRGRLYPWGVVEVENPEHNDFLKLRTMLITHMQDLQEVTQDLHYENFRSERLKRGGRKVENEDMNKDQILLEKEAELRRMQEMIARMQAQMQMQMQGGDSDSGALGQHV
B5: Septin 9 (protein, UniProt Q80UG5 1-583)
chain: MKKSYSGVTRTSSGRLRRLADPTGPALKRSFEVEEIEPPNSTPPRRVQTPLLRATVASSSQKFQDLGVKNSEPAARLVDSLSQRSPKPSLRRVELAGAKAPEPMSRRTEISIDISSKQVESTASAAGPSRFGLKRAEVLGHKTPEPVPRRTEITIVKPQESVLRRVETPASKIPEGSAVPATDAAPKRVEIQVPKPAEAPNCPLPSQTLENSEAPMSQLQSRLEPRPSVAEVPYRNQEDSEVTPSCVGDMADNPRDAMLKQAPASRNEKAPMEFGYVGIDSILEQMRRKAMKQGFEFNIMVVGQSGLGKSTLINTLFKSKISRKSVQPTSEERIPKTIEIKSITHDIEEKGVRMKLTVIDTPGFGDHINNENCWQPIMKFINDQYEKYLQEEVNINRKKRIPDTRVHCCLYFIPATGHSLRPLDIEFMKRLSKVVNIVPVIAKADTLTLEERVYFKQRITADLLSNGIDVYPQKEFDEDAEDRLVNEKFREMIPFAVVGSDHEYQVNGKRILGRKTKWGTIEVENTTHCEFAYLRDLLIRTHMQNIKDITSNIHFEAYRVKRLNEGNSAMANGIEKEPEAQEM
B6: Nuclear-interacting partner of Alk (protein, UniProt Q80YV2 1-501)
chain: MAATSEGPLFAASIEKTWGSVVRSPEGTPQKVRELIDEGIVPEEGGTEPKDTAATFQSVDGSPQAEQSPLESTSKEAFFHRVETFSSLKWAGKPPELSPLICAKYGWVTVECDMLKCSSCQAFLCASLQPTFDFGRYKERCAELKKSLCSAHEKFCFWPDSPSPDRFGMLPLGEPAVLISEFLDRFQSLCHLDLQLPSLRPEDLKTMCLTEDAVSALLHLLEDELDFHADDRKTTSKLGSDVQVQATACVLSLCGWACSSLEPTQLSLITCYQCMRKVGLWGFQQIESSMTDLEASFGLTSSPIPGVEGRPEHFPLVPESPRRMMTRSQDATVSPGSEQSEKSPGPIVSRTRSWESSSPVDRPELEAASPTTRSRPVTRSMGTGDSAGVEVPSSPLRRTKRARLCSSSSSDTSPRSFFDPTSQHRDWCPWVNITLVKETKENGETEVDACTPAEPGWKAVLTILLAHKRSNQPAETDSMSLSEKSRKVFRIFRQWESSSSS
B7: cAMP specific 3-5-cyclic phosphodiesterase 4D (enzyme, UniProt Q01063 1-747)
chain: MERDTCDVLSRSKSASEETLHSCNEEEDPFRGMEPYLVRRLSSRSIQLPPLAFRQLEQADLRSESENIPRPTSLPLKILPLIAVTSADSSGFDVDNGTSAGRSPLDPMTSPGSGLILQANFVHSQRRESFLYRSDSDYDLSPKSMSRNSSIASDIHGDDLIVTPFAQVLASLRTVRNNFAALTNLQDRAPSKRSPMCNQPSINKATITEEAYQKLASETLEELDWCLDQLETLQTRHSVSEMASNKFKRMLNRELTHLSEMSRSGNQVSEYISNTFLDKQHEVEIPSPTQKEKEKKKRPMSQISGVKKLMHSSSLTNSCIPRFGVKTEQEDVLAKELEDVNKWGLHVFRIAELSGNRPLTVIMHTIFQERDLLKTFKIPVDTLITYLMTLEDHYHADVAYHNNIHAADVVQSTHVLLSTPALEAVFTDLEILAAIFASAIHDVDHPGVSNQFLINTNSELALMYNDSSVLENHHLAVGFKLLQEENCDIFQNLTKKQRQSLRKMVIDIVLATDMSKHMNLLADLKTMVETKKVTSSGVLLLDNYSDRIQVLQNMVHCADLSNPTKPLQLYRQWTDRIMEEFFRQGDRERERGMEISPMCDKHNASVEKSQVGFIDYIVHPLWETWADLVHPDAQDILDTLEDNREWYQSTIPQSPSPAPDDQEEGRQGQTEKFQFELTLEEDCESDTEKDSGSQVEEDTSCSDSKTLCTQDSESTEIPLDEQVEEEAVAEEESQPETCVPDDCCPDT
B8: Septin 10 (protein, UniProt Q8C650 1-452)
chain: MASCDEIKEHPRSLSMCGHVGFESLPDQLVDRSIEQGFCFNILCVGETGIGKSTLINTLFNTNFEELESSHFCPCVRLRAQTYELQESNVRLKLTIVNTVGFGDQINKEDSYQPIVDYIDDQFEAYLQEEVKIKRALFNYHDSRIHVCLYFIAPTGHSLRTLDLLTMKSLDNKVNIIPLIAKADTISKSELQKFKMKLMNELVINGVQIYQFPTDDDTTSKINGAMNGHLPFAVVGSMDEIKVGNKMVKGRQYPWGIVQVENENHCDFVKLREMLICTNMEDLREQTHMRHYELYRRCKLQEMGFVDMGPENKPLSLQETYEAKRHEFYGERQRKEEQMKQMFVQRVKEKEAILKEAERELQAKFEHLKRIHQEERMKLEEKRRMLEEESVAFAKKKATCELFPNQSFLASGSSIRKDKDRKKADGASAFCDCLTAQESVRLCISSPRKDMD

Target: Numb (mouse (endogenous in C2C12))
Assay: affinity purification with mass spectrometry; endogenous Numb precipitated with goat polyclonal anti-Numb (Abcam Ab4147) and Protein A/G Plus from lysate of 5-day differentiated C2C12 myotubes; 25 mM Tris HCl pH 7.2, 150 mM NaCl, 1 mM EDTA, 5% glycerol, 0.1% Triton X-100, 4 °C; goat IgG as control; eluted with 0.3% SDS at 37 °C; LC/MS/MS; seven independent samples

binding	Binder
binds	B1
binds	B2
binds	B3
binds	B4
binds	B5
binds	B6
binds	B7
binds	B8
